Here are results for 2 compounds from PubChem BioAssay AID652039 (The Scripps Research Institute Molecular Screening Center, 2013).

The chains behind the UniProt entries cited, without tags or fusion partners. Where a name states a change or a piece, a line headed by the entry shows the natural chain unless it says otherwise.
UniProt P49862: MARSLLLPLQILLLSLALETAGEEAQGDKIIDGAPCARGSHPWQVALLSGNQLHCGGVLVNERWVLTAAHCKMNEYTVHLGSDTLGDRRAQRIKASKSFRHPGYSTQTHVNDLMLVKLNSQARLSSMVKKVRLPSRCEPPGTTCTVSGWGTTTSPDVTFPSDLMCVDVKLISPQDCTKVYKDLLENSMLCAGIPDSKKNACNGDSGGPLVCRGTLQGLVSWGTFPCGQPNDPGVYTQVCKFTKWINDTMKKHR

The entries are a selection whose mix differs from that of the whole data set. The source made the active and inactive calls.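 The calls were made as follows: active = activation above the mean of all tested compounds plus 3 SD, computed per campaign excluding outliers beyond control limits (cut at about 13% in these data); inactive = the rest.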

The experiment has as its target Kallikrein-7 (Homo sapiens) (UniProt P49862). Nature of the experiment: activation of human kallikrein-7 proenzyme – biochemical, fluorescence intensity, primary screen (AID 652039). Particulars: purified proKLK7, EDANS-DABCYL substrate fluorescence; at 7 µM; stronger effect = higher value; 100% is mature enzyme control, 0% vehicle.
As to `Oc1ccc2ccccc2c1CNc1cnc2ccccc2c1`, the activation is active: 46.8%.
Then `COC(=O)COc1ccc2cc(-c3ccc(OC)cc3)c(=O)oc2c1`, with active: 28.2%.
